# Results published in paper doi:10.1101/683995.
# Sequences of proteins named here, by UniProt entry; tags and fusion partners are left off. A change or cut given only in a name is not applied to a line headed by its entry.
# UniProt P45444: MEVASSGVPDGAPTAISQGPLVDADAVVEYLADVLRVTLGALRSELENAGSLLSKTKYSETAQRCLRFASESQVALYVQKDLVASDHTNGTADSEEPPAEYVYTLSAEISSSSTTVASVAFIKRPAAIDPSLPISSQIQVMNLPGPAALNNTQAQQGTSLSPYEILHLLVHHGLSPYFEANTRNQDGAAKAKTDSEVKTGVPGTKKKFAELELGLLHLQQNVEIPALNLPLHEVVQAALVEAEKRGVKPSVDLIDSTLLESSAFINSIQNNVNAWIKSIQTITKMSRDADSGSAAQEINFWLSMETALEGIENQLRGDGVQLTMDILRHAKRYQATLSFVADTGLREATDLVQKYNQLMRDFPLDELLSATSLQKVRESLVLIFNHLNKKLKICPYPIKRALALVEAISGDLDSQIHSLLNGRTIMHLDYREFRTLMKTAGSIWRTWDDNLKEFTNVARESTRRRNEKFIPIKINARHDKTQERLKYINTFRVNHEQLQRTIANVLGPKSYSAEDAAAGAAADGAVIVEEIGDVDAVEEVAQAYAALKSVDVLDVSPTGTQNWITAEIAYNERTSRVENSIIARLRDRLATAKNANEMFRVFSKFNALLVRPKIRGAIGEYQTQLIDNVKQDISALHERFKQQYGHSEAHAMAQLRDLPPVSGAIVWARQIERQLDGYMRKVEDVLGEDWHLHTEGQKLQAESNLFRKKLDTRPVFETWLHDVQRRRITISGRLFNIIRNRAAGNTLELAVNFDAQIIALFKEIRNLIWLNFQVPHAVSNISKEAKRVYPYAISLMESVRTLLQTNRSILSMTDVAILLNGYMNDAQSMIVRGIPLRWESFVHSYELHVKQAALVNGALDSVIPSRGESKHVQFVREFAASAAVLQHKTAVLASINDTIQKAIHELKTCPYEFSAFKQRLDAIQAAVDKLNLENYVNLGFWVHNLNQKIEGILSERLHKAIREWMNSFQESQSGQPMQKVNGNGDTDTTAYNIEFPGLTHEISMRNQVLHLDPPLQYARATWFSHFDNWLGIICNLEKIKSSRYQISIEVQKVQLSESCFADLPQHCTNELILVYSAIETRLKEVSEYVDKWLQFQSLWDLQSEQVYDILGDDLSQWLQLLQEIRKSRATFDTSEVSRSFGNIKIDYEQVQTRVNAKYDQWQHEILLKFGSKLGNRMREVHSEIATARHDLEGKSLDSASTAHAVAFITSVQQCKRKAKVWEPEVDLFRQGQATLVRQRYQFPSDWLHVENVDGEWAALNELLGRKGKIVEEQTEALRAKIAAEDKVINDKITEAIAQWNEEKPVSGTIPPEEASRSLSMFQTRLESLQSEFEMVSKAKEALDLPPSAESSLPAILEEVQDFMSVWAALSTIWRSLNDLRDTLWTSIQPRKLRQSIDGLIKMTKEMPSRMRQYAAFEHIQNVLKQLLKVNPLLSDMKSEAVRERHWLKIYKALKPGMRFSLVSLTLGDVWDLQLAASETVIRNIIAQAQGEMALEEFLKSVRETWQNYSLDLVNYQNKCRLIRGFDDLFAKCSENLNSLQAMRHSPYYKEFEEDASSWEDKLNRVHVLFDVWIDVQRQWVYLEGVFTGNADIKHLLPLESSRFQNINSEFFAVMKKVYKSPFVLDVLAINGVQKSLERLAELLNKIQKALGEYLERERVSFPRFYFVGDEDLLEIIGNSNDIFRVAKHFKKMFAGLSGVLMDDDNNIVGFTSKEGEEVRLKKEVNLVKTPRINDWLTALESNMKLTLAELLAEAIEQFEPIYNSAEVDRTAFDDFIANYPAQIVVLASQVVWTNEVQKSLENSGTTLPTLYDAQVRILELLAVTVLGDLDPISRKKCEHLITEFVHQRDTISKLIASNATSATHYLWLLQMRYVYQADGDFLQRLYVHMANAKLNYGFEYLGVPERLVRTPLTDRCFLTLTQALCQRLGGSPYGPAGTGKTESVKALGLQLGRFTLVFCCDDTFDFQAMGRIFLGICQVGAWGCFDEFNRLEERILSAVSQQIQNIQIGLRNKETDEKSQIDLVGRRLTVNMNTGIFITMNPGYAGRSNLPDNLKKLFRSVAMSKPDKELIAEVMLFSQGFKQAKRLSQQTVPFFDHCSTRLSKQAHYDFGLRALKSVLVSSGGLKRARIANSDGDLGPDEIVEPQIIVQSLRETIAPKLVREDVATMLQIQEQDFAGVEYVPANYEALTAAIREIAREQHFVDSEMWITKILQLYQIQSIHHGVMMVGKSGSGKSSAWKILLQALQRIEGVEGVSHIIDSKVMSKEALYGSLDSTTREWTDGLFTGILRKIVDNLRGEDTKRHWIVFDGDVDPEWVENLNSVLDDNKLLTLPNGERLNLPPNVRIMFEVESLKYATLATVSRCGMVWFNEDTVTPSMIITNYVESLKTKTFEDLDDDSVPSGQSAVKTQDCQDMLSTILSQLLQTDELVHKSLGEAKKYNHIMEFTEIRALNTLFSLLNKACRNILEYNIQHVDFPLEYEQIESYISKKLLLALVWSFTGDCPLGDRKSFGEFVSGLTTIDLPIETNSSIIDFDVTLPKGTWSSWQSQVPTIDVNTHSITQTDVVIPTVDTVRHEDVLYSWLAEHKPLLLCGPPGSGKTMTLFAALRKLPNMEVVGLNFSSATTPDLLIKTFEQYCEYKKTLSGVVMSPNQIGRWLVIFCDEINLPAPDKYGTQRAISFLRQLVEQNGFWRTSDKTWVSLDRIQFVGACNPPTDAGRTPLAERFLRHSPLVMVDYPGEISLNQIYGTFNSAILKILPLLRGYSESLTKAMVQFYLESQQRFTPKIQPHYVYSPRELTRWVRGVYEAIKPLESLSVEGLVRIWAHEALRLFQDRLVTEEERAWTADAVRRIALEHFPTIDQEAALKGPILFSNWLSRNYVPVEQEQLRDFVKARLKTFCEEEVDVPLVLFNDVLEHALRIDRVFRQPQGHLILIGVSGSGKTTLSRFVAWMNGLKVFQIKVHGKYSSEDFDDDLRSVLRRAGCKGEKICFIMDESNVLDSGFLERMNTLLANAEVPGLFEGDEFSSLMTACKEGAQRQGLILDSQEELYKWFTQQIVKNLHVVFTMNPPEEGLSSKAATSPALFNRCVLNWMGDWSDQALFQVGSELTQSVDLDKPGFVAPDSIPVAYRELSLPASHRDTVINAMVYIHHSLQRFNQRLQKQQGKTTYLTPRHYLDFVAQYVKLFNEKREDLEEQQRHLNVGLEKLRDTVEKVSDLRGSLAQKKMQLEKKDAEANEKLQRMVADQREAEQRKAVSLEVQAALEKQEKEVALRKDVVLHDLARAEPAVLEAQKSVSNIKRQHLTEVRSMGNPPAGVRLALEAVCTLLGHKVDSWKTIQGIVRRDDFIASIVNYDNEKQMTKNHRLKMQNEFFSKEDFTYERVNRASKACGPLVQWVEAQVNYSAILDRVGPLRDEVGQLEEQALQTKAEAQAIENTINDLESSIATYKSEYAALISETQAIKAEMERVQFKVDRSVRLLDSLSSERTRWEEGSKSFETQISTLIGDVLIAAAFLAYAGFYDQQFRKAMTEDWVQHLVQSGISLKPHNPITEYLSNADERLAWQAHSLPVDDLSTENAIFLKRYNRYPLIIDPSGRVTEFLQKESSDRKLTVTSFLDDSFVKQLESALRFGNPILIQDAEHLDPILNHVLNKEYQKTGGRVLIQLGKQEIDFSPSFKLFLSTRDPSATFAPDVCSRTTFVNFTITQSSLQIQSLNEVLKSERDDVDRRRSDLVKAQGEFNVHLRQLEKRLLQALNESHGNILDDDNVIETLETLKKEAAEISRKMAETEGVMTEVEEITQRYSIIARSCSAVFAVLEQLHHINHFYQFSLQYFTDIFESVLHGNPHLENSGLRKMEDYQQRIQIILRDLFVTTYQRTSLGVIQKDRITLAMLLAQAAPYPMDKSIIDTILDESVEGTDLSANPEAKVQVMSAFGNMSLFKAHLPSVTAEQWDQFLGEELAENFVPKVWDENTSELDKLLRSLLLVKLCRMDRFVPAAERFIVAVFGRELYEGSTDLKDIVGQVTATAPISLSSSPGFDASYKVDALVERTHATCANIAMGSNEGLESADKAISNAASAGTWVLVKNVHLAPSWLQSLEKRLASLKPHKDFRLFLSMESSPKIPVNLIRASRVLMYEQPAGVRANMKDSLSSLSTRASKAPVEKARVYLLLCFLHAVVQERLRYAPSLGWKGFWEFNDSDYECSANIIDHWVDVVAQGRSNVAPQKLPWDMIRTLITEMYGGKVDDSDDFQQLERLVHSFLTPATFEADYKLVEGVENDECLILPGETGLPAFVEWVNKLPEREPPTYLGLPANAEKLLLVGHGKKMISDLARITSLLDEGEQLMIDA
# UniProt Q8J0T2: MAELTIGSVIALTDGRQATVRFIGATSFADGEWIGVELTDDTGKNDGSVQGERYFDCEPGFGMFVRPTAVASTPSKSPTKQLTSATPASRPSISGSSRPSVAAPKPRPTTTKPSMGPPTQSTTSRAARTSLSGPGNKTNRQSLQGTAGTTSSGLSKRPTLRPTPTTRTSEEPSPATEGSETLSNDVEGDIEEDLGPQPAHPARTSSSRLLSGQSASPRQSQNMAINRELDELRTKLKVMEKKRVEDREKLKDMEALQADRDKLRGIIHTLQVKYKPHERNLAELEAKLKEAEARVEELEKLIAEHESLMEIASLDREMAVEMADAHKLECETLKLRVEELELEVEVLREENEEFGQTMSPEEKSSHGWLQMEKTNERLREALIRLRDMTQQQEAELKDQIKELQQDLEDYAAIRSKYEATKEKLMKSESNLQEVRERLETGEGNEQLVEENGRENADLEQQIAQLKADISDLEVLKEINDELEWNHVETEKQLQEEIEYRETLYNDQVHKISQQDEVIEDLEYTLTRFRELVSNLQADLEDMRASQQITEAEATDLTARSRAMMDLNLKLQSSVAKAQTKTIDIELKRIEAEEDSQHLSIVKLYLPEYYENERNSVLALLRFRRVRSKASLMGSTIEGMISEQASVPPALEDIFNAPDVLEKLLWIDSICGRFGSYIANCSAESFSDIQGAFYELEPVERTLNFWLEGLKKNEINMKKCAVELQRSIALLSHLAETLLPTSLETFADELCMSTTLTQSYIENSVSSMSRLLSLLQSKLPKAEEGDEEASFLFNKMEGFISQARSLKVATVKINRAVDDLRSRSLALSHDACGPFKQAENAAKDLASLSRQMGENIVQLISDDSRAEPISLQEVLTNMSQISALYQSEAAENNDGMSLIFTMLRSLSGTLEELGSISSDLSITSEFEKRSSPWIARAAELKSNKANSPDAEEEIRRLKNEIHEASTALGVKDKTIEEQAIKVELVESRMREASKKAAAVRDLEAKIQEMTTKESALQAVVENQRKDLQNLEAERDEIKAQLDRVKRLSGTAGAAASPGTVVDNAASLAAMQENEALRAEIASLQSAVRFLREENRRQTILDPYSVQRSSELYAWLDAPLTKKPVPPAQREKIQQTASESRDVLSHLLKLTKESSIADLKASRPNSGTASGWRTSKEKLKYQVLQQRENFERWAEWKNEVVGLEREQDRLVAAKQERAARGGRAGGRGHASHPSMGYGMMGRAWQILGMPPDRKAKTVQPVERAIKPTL
# Key:
# [1] = target: GFP-dynein HC (NudA) with the nudA R1602E phi-opening mutation (A. nidulans) (UniProt P45444); test: co-IP
# [2] = target: GFP-dynein HC (NudA) (A. nidulans) (UniProt P45444); test: co-IP
substance,measurement,setting,value
dynactin p150 (from UniProt Q8J0T2),binding,[1],binds
same,binding,[2],binds

# Results are given in words; binding and its absence hold for the method and conditions named. In cells and extracts the contact can be indirect. A result given as binding can be weak or reduced; the word gives no strength.
